Results are given in words; binding and its absence hold for the method and conditions named. In cells and extracts the contact can be indirect. Some entries that bind do so weakly or less than the wild type. Tags and fused reporters may be left off the sequences shown.
Molecular target: T1, FLAG-SHP fusion protein (small heterodimer partner, Nr0b2) (UniProt Q15466)
T1 sequence: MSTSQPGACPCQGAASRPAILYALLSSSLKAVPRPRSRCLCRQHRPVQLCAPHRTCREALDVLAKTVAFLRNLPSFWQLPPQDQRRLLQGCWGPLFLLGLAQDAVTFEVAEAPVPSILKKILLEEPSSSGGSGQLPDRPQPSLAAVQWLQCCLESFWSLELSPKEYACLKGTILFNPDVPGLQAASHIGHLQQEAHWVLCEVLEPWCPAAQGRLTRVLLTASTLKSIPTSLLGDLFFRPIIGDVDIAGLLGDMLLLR
Test: co-IP; 1000 μg whole protein lysate of PMSCV-SHP (FLAG-SHP) or control PMSCV RAW 264.7 cells incubated with anti-FLAG M2 magnetic beads; eluted in 2× SDS loading buffer; Western blot

By UniProt entry, the sequences of proteins in these tests, tags left out.
UniProt Q04207: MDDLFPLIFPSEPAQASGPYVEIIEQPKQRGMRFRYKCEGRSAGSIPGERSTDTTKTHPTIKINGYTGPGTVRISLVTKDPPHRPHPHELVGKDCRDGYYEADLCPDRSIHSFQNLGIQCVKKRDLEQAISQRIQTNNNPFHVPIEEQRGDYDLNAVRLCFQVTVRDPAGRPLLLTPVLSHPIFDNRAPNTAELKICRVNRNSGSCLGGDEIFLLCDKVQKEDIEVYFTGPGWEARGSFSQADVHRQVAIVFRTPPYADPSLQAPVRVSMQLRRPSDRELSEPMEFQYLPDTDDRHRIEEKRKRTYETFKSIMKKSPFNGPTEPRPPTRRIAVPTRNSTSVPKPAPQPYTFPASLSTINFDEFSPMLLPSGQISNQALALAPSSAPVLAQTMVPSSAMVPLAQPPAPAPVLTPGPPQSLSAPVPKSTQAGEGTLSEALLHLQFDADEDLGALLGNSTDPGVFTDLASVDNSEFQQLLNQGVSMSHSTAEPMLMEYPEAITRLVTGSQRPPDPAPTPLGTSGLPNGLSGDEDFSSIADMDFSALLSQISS

## NF-κB p65 (from UniProt Q04207 1-549)
  binding: binds
